# Screening data, single-dose tests

Mtb cholesterol medium: 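Growth of Mycobacterium tuberculosis over 4 days (cholesterol / DPPC medium with tyloxapol); the read-out is not stated. Tested at 50 µM. Higher reads as more growth inhibition (inferred: compounds with an IC50 in retests scored well above the rest). Size under these conditions: about 69,000 compounds, about 370 of them at 50% or above in at least one test.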
Mtb glucose medium: 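Phenotypic screen: M. tuberculosis growth, glucose 7H9 medium, 3 days; the read-out is not stated. Tested at 50 µM. Direction is inferred from retests: higher values go with more growth inhibition. About 69,000 compounds were tested under these conditions; 1.1% (about 760) showed 50% or more at least once.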

Results are given as percent effect. How 0% and 100% were set is not recorded. Most values in the screen are low, and negative values occur. This is an unselected part of the compounds tested. Two or more numbers in one place are separate tests of the same structure; such repeats can differ widely.

{"smiles": "CCn1c(C)nnc1CN(C)C1CCN(Cc2ccccn2)C1", "stereo": "centres unmarked", "Mtb cholesterol medium": -17.52, "Mtb glucose medium": "3.322 & -3.545"}
{"smiles": "Cc1ccc(OCC(O)CN2CCC(Cn3cc(C)cn3)CC2)cc1", "stereo": "centres unmarked", "Mtb cholesterol medium": 6.273, "Mtb glucose medium": 11.32}
{"smiles": "O=C(NCCc1ccc(F)cc1)NC1CCCc2c1cnn2CCO", "stereo": "centres unmarked", "Mtb cholesterol medium": "-0.6362 & 2.234", "Mtb glucose medium": -4.912}
{"smiles": "O=C(NCCNc1ccc(C(F)(F)F)cn1)c1ccc(F)cc1Cl", "Mtb cholesterol medium": 34.48, "Mtb glucose medium": 45.75}
{"smiles": "CC(=O)N1CC(C(=O)NC(C)c2cnn(C)c2C)C1", "stereo": "centres unmarked", "Mtb cholesterol medium": "-5.696 & -1.988", "Mtb glucose medium": -6.35}
{"smiles": "CN(C)c1ccc(C(=O)NCCCc2ccccn2)cn1", "Mtb cholesterol medium": -40.14, "Mtb glucose medium": 4.638}
{"smiles": "COc1c(C2CCCN2C(=O)c2cc(Cl)c[nH]2)c(C)nn1C", "stereo": "centres unmarked", "Mtb cholesterol medium": "5.176 & 1.977", "Mtb glucose medium": -9.511}
{"smiles": "O=C1CC2(CCN(C(=O)c3ccncc3)CC2)Oc2c(Cl)cc(Cl)cc21", "Mtb cholesterol medium": -6.007, "Mtb glucose medium": -22.89}
{"smiles": "O=C(O)C(F)(F)F.O[C@@H]1CCN(CC2CC2)[C@H]1Cc1ccccc1", "Mtb cholesterol medium": -28.72, "Mtb glucose medium": -7.968}
{"smiles": "O=C([C@H]1CCCO1)N1CCC2(CC1)Cc1ccccc1CNC2=O", "Mtb cholesterol medium": -16.95, "Mtb glucose medium": -28.8}
{"smiles": "Cc1ccc(C(=O)N2CCC3(CCCC3)CC2)c(=O)[nH]1", "Mtb cholesterol medium": 8.653, "Mtb glucose medium": -3.774}
{"smiles": "Fc1cnc(NCC2Cn3nnc(-c4ccccc4)c3CO2)nc1", "stereo": "centres unmarked", "Mtb cholesterol medium": "-11.2 & -26.95", "Mtb glucose medium": -26.03}
{"smiles": "O=C(C1CCOCC1)N1CCOCC(Cc2ncccn2)C1", "stereo": "centres unmarked", "Mtb cholesterol medium": -4.159, "Mtb glucose medium": 24.03}
{"smiles": "Cc1nc(CN(C)Cc2nc(-c3ccncc3)no2)co1", "Mtb cholesterol medium": 9.12, "Mtb glucose medium": -2.433}
{"smiles": "O=C(Cc1ccc(F)c(Br)c1)NC1CCN(CC(F)F)CC1", "Mtb cholesterol medium": -0.2579, "Mtb glucose medium": 15.32}
{"smiles": "[H][C@@]12COC[C@]1(C(=O)NCc1cccs1)CN(C)C2", "Mtb cholesterol medium": -22.52, "Mtb glucose medium": -14.79}
{"smiles": "CN1CC(NC(=O)CCOc2cccc(Cl)c2)CC1=O", "stereo": "centres unmarked", "Mtb cholesterol medium": -42.73, "Mtb glucose medium": -40.99}
{"smiles": "Cn1nc(Cn2ccnc2)c2c1CN(C(=O)c1ccc[nH]1)C2", "Mtb cholesterol medium": "-8.422 & -3.429", "Mtb glucose medium": -7.666}
{"smiles": "N#Cc1cccc(S(=O)(=O)NC(=O)c2csc(-c3ccco3)n2)c1", "Mtb cholesterol medium": 7.289, "Mtb glucose medium": -14.55}
{"smiles": "O=C(O)C(F)(F)F.[H][C@@]12CCN(CCOCc3ccccc3)[C@]1([H])CC[C@H](C(=O)NC1CC1)O2", "Mtb cholesterol medium": 2.278, "Mtb glucose medium": -26.3}
{"smiles": "O=c1[nH]c2ccc(S(=O)(=O)N(CCO)Cc3ccncc3)cc2[nH]1", "Mtb cholesterol medium": "8.829 & -5.537", "Mtb glucose medium": -16.18}
{"smiles": "CC(C)(O)CN1CCN(C(=O)C2CSc3ccccc3O2)CC1", "stereo": "centres unmarked", "Mtb cholesterol medium": 2.682, "Mtb glucose medium": "14.16 & 0.7933"}

Repeated from the top, 2 entries:

CCn1c(C)nnc1CN(C)C1CCN(Cc2ccccn2)C1 (centres unmarked) read Mtb cholesterol medium: -17.52%; Mtb glucose medium: 3.322% & -3.545%.
Cc1ccc(OCC(O)CN2CCC(Cn3cc(C)cn3)CC2)cc1 (centres unmarked) read Mtb cholesterol medium: 6.273%; Mtb glucose medium: 11.32%.

Source: ChEMBL document CHEMBL3988442, “University of Dundee, Small-Polar-MMV Screening Library” (2021).